Publication PMC10180911
These are yes or no findings as the source states them, for the method shown. For some of these results: Binding seen in cells or lysates may run through a third protein. Some results given as binding are weak or reduced against the parent protein; the word gives no strength. For some of these results: Where a sequence is shown, tags or fusion partners need not be part of it.

T1: maMYB, full-length, MYTH bait (Arabidopsis thaliana) (UniProt Q9ASQ2)
T1 sequence: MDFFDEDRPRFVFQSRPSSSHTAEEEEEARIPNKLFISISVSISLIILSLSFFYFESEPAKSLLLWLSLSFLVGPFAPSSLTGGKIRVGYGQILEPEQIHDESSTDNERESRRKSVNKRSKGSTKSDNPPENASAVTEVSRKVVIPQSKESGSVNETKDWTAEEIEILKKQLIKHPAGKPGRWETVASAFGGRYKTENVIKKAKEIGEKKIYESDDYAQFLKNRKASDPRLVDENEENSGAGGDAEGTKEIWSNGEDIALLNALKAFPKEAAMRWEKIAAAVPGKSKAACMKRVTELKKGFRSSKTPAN

T2: CFP–maMYB (Arabidopsis thaliana) (UniProt Q9ASQ2)
T2 sequence: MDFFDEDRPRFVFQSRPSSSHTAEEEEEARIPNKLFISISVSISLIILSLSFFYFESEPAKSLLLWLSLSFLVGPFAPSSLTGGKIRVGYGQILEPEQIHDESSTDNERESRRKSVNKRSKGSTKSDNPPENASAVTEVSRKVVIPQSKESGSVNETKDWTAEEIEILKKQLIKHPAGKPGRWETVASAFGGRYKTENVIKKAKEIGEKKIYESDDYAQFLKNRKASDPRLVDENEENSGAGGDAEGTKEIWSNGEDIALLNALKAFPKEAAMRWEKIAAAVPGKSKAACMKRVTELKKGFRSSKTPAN

T3: maMYB–CFP (Arabidopsis thaliana) (UniProt Q9ASQ2)
T3 sequence: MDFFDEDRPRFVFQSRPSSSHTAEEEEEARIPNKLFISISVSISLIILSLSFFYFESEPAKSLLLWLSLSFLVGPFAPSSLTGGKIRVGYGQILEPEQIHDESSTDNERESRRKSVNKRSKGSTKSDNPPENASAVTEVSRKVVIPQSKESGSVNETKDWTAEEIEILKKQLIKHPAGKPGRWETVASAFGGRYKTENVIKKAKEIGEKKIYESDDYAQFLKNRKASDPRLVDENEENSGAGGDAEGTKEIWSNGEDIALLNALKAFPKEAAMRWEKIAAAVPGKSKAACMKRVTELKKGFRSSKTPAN


Assays:
[1] = biological target: T1, maMYB, full-length, MYTH bait (Arabidopsis thaliana); experiment: two-hybrid; split-ubiquitin MYTH, drop tests of named pairs on permissive (YNB -Leu -Trp) and test medium (YNB -Leu -Trp -Ade -His); strain NMY51; bait plasmid pBT3N, prey plasmid pPR3N
[2] = biological target: T2, CFP–maMYB (Arabidopsis thaliana); experiment: FRET or BRET; apFRET in planta; transiently expressed fluorescent protein fusions; FRET efficiency measured in regions of interest at the ER and the NE
[3] = biological target: T3, maMYB–CFP (Arabidopsis thaliana); experiment: as above

Binder	binding [1]	binding [2]	binding [3]
SUN3, full-length, MYTH prey (protein, UniProt F4I316 1-660) MQRSCRTRRRVSVNKFNGRNSFYKVSLSLVFLLWVLLFFSTLLISHGDGAKDEPLNDSMGMADPDDGQSDEKVVPFDGPLSLASASVDVTSDLSRNDDVNLSEESEDKEQEAEISSTVSGNDIESKDTYLLKQSEINKKDTGIDAGSKYDDFPKKSEINNTGTWNDTEGKDDNNFLKQSQLNKTGTGNDTESSDNEFLEQNQMNKTVLGNGTEINVSKVDQPSRAVPLGLDEFKSRASNSRNKSLSDQVSGVIHRMEPGGKEYNYASASKGAKVLSSNKEAKGAASILSRDNDKYLRNPCSTEGKFVVVELSEETLVNTIKIANFEHYSSNLKEFELQGTLVYPTDTWVHMGNFTASNVKHEQNFTLLEPKWVRYLKLNFISHYGSEFYCTLSLIEVYGVDAVERMLEDLISVQDNKNAYKPREGDSEHKEKPMQQIESLEGDDGADKSTHREKEKEAPPENMLAKTEASMAKSSNKLSEPVEEMRHHQPGSRMPGDTVLKILMQKLRSLDLNLSILERYLEELNLRYGNIFKEMDREAGVREKAIVALRLDLEGMKERQEGMVSEAEEMKEWRKRVEAEMEKAEKEKENIRQSLEQVSKRLEWMEKKCLTVFTVCLGFGIIAVIAVVIGMGTGLAEKTGSGAWLLLLISSTFIMFVLSL	binds		
SUN4, full-length, MYTH prey (protein, UniProt F4I8I0 1-596) MQRSRRALLVRRRVSETTSNGRNRFYKVSLSLVFLIWGLVFLSTLWISHVDGDKGRSLVDSVEKGEPDDERADETAESVDATSLESTSVHSNPGLSSDVDIAAAGESKGSETILKQLEVDNTIVIVGNVTESKDNVPMKQSEINNNTVPGNDTETTGSKLDQLSRAVPLGLDEFKSRASNSRDKSLSGQVTGVIHRMEPGGKEYNYAAASKGAKVLSSNKEAKGASSIICRDKDKYLRNPCSTEGKFVVIELSEETLVNTIKIANFEHYSSNLKDFEILGTLVYPTDTWVHLGNFTALNMKHEQNFTFADPKWVRYLKLNLLSHYGSEFYCTLSLLEVYGVDAVERMLEDLISIQDKNILKLQEGDTEQKEKKTMQAKESFESDEDKSKQKEKEQEASPENAVVKDEVSLEKRKLPDPVEEIKHQPGSRMPGDTVLKILMQKIRSLDVSLSVLESYLEERSLKYGMIFKEMDLEASKREKEVETMRLEVEGMKEREENTKKEAMEMRKWRMRVETELEKAENEKEKVKERLEQVLERLEWMEKKGVVVFTICVGFGTIAVVAVVFGMGIVRAEKQGGLAWLLLLISSTFVMFILSL	no binding		
SUN4, fluorescent protein fusion for apFRET (protein, UniProt F4I8I0 1-596) MQRSRRALLVRRRVSETTSNGRNRFYKVSLSLVFLIWGLVFLSTLWISHVDGDKGRSLVDSVEKGEPDDERADETAESVDATSLESTSVHSNPGLSSDVDIAAAGESKGSETILKQLEVDNTIVIVGNVTESKDNVPMKQSEINNNTVPGNDTETTGSKLDQLSRAVPLGLDEFKSRASNSRDKSLSGQVTGVIHRMEPGGKEYNYAAASKGAKVLSSNKEAKGASSIICRDKDKYLRNPCSTEGKFVVIELSEETLVNTIKIANFEHYSSNLKDFEILGTLVYPTDTWVHLGNFTALNMKHEQNFTFADPKWVRYLKLNLLSHYGSEFYCTLSLLEVYGVDAVERMLEDLISIQDKNILKLQEGDTEQKEKKTMQAKESFESDEDKSKQKEKEQEASPENAVVKDEVSLEKRKLPDPVEEIKHQPGSRMPGDTVLKILMQKIRSLDVSLSVLESYLEERSLKYGMIFKEMDLEASKREKEVETMRLEVEGMKEREENTKKEAMEMRKWRMRVETELEKAENEKEKVKERLEQVLERLEWMEKKGVVVFTICVGFGTIAVVAVVFGMGIVRAEKQGGLAWLLLLISSTFVMFILSL		no binding	no binding

Second part, the binder after the results:

binding [1]	binding [2]	binding [3]	Binder
binds weakly			SUN5, full-length, MYTH prey (protein, UniProt F4JPE9 1-561) MARRGSCSTICLNEKLQRFRIVRISDKADNFNSRSGSFFERSISLVLLLWCFLFLVYSKLGQSHDDYGNADRIGNYTDGSVSKTLNSTSSVFPQATEKENNFCLLRKGQLQDVYEHVLVNNALLICKVVLPERRISKKTLEARDPRYVNLEDKSLKVNGSSQLVNNGTRYRLEPDGNGYNYASAMKGAKVVDHNKEAKGASNVLGKDHDKYLRNPCSVSDKYVVIELAEETLVDTVRIANFEHYSSNPKEFSLSGSLSFPSDMWTPAGSFAAANVKQIQSFRLPEPKWLRYLKLNLVSHYGSEFYCTLSVVEVFGIDALEQMLEDLFVPSETPPSKPAMVELKTADEKQDGEIKSNRTDQIGKETEAQKKKDDVVKTINIIGDKKYEVKEKHNVLKVMMQKVKLIEMNLSLLEDSVKKMNDKQPEVSLEMKKTLVLVEKSKADIREITEWKGKMEKELRDLELWKTLVASRVESLARGNSALRLDVEKIVKEQANLESKELGVLLISLFFVVLATIRLVSTRLWAFLGMSITDKARSLWPDSGWVMILLSSSIMIFIHLLS
	binds	binds	YFP–SUN3 (protein, UniProt F4I316 1-660) MQRSCRTRRRVSVNKFNGRNSFYKVSLSLVFLLWVLLFFSTLLISHGDGAKDEPLNDSMGMADPDDGQSDEKVVPFDGPLSLASASVDVTSDLSRNDDVNLSEESEDKEQEAEISSTVSGNDIESKDTYLLKQSEINKKDTGIDAGSKYDDFPKKSEINNTGTWNDTEGKDDNNFLKQSQLNKTGTGNDTESSDNEFLEQNQMNKTVLGNGTEINVSKVDQPSRAVPLGLDEFKSRASNSRNKSLSDQVSGVIHRMEPGGKEYNYASASKGAKVLSSNKEAKGAASILSRDNDKYLRNPCSTEGKFVVVELSEETLVNTIKIANFEHYSSNLKEFELQGTLVYPTDTWVHMGNFTASNVKHEQNFTLLEPKWVRYLKLNFISHYGSEFYCTLSLIEVYGVDAVERMLEDLISVQDNKNAYKPREGDSEHKEKPMQQIESLEGDDGADKSTHREKEKEAPPENMLAKTEASMAKSSNKLSEPVEEMRHHQPGSRMPGDTVLKILMQKLRSLDLNLSILERYLEELNLRYGNIFKEMDREAGVREKAIVALRLDLEGMKERQEGMVSEAEEMKEWRKRVEAEMEKAEKEKENIRQSLEQVSKRLEWMEKKCLTVFTVCLGFGIIAVIAVVIGMGTGLAEKTGSGAWLLLLISSTFIMFVLSL
